# Measured values reported in article PMC12040169 (PLOS Biology, 2025).
# The other results are listed elsewhere or left out.
# Tested on: T1, CTL2-GFP (C. trachomatis L2/434/Bu, GFP-expressing)
# T1 construct: L2/434/Bu, GFP-expressing
# Parameters: species or system HeLa; Intracellular C. trachomatis growth in HeLa cells, bulk GFP fluorescence relative to DMSO
# Settings: bulk GFP, single well; 28.5 h, 10 µM; inhibitor
row,SMILES,% of control remaining [%]
1,CN1CCN(c2nccnc2-c2cccc(F)c2)CC1 [CBK036876],109.461
2,COc1nccnc1OC1CCN(CC2CCCCC2)CC1 [CBK084263],103.538
3,CN1CCN(C(=O)c2cccc(-c3ncc(OCC(F)(F)F)nc3N)c2)CC1 [CBK145196],102.557
4,Cc1ccc(/C=C/C(=O)N2CCC3(CC2)CC(=O)c2cc(Cl)ccc2O3)cc1 [CBK156439],125.373
5,COc1ccccc1N1CCn2c1nc1c2c(=O)n(CCN2CCOCC2)c(=O)n1C [CBK269265],169.935
6,O=C1CC[C@H](NC(=O)c2cccs2)C(c2cccnc2)N1 (stereo partly drawn) [CBK282901],118.539
7,Cc1nc(N)sc1-c1nnc(SC/C=C/c2ccccc2)n1C [CBK269383],154.711
8,Cc1nnc(CCNC(=O)c2cccc(C#N)c2)n1C [CBK306017],103.934
9,S=c1n(CN2CCC(c3ccccc3)CC2)nc(Cc2ccccc2)n1-c1ccccc1 [CBK265037],113.733
10,CN1CCC2CN(CCCC(c3ccc(F)cc3)c3ccc(F)cc3)CCN2C1=O (stereo not drawn) [CBK024865C],98.0555
11,Cn1cc(C(=O)OCc2cccc(S(=O)(=O)N3CCOCC3)c2)cn1 [CBK305721],109.397
12,CC(C)C1OC(NCc2ccc(Cl)cc2)=NC1=O (stereo not drawn) [CBK070352],161.381
13,Cc1nc(N)nc(NCCC2CCCOC2)c1Cl (stereo not drawn) [CBK307353],114.075
14,CSc1ccccc1NC(=O)Cn1c(-c2nonc2N)nc2ccccc21 [CBK266919],152.51
15,CC(=O)N1CCc2c(sc(NC(=O)c3ccc(C)cc3)c2C#N)C1 [CBK304411],87.7997
16,O=[N+]([O-])c1cccc(C(Nc2cccnc2)c2cc(Cl)c3cccnc3c2O)c1 (stereo not drawn) [CBK268629],36.9767
17,CCCCC(=O)N1CCC2(CC1)CC(=O)c1ccc(OCc3ccccc3)c(C)c1O2 [CBK156493],73.0984
18,CCNC(=O)N1CC2(CCN(Cc3csc(C)n3)CC2)c2ccccc21 [CBK126712],96.8439
19,Cc1ccccc1Nc1nc(N)nc(CN2CCCC(C(F)(F)F)C2)n1 (stereo not drawn) [CBK305073],40.8429
20,CCCCOc1ccc(-c2nnn(C(C)C(=O)OCC)n2)cc1 (stereo not drawn) [CBK068558],115.219
21,O=C(Nc1sc2c(c1C(=O)NCc1cccnc1)CCCC2)c1sc2ccccc2c1Cl [CBK266334],123.224

row,SMILES,% of control remaining [%]
1,N/C(CC(=O)Nc1cc(Cl)cc(Cl)c1)=N\O [CBK228614],107.81
2,O=C(C[S+]([O-])c1ccc(C(F)(F)F)cc1[N+](=O)[O-])Oc1cccc2cccnc12 (stereo not drawn) [CBK266716],121.745
3,c1ccc2c(CCN3CCC[C@@H]3CN3CCCC3)c[nH]c2c1 [CBK149104],119.36
4,COc1cc(CNc2nccnc2-c2cccnc2)cc(OC)c1 [CBK038061],89.1487
5,O=P(O)(CNCc1ccccc1)CNCc1ccccc1 [CBK261604C],91.6986
6,Cc1nccn1CCNC(=O)Cn1cnc2ccccc21 [CBK281983],138.895
7,CCN1CC2(CCN(Cc3ccc4nsnc4c3)CC2)c2ccccc21 [CBK136994],142.311
8,CCOc1ccc(/N=N\c2ccc(O)c(/C=N\Nc3ccc([N+](=O)[O-])cc3)c2)cc1 [CBK262111],112.309
9,CCCCSc1nc(N)cc(N2CCCC(N3CCCC3=O)C2)n1 (stereo not drawn) [CBK306995],127.93
10,COc1ncc(-c2cncc(N3CCN(CCO)CC3)n2)c(OC)n1 [CBK065146],188.975
11,CCNC(=O)C1CCN(Cc2nc(-c3cc(OC)ccc3F)oc2C)C1 (stereo not drawn) [CBK307040],115.252
12,O=C(O)C1C2CCC(CC2)C1C(=O)N1CCN(Cc2ccccc2Cl)CC1 (stereo not drawn) [CBK270336],133.096
13,c1ccc(SCc2csc(-c3ccc4c(c3)OCO4)n2)nc1 [CBK270294],158.518
14,CCn1c(=O)n(CC(=O)N2CCC(C)CC2)c2cccnc21 [CBK283895],187.015
15,COCCNc1nc2c([nH]1)c(=O)n(C)c(=O)n2C [CBK288104],120.605
16,CCCc1cc(O)nc(SCC(=O)Nc2ccc(Cl)cc2Cl)n1 [CBK265147],134.514
17,CC(=O)NCc1ccc(-c2cc(CN(C)C)n(C)n2)cc1 [CBK281667],108.873
18,CC(=O)Nc1ccc(-c2cncc(N3CCN(CCN4CCCC4)CC3)n2)cc1 [CBK065710],180.76
19,Cc1cc(C)c(C)c(CSCc2nc3ccccc3[nH]2)c1C [CBK266466],130.721
20,Cc1nn(C)c(Cl)c1S(=O)(=O)NC1(c2ccc(F)cc2)CC1 [CBK282800],117.159
21,O=C(Cc1ccccc1Cl)N1CCC(O)(c2cccnc2F)CC1 [CBK284360],72.234

# Five records picked at random from those above:
row,SMILES,% of control remaining [%]
12,CC(C)C1OC(NCc2ccc(Cl)cc2)=NC1=O (stereo not drawn) [CBK070352],161.381
12,O=C(O)C1C2CCC(CC2)C1C(=O)N1CCN(Cc2ccccc2Cl)CC1 (stereo not drawn) [CBK270336],133.096
20,CCCCOc1ccc(-c2nnn(C(C)C(=O)OCC)n2)cc1 (stereo not drawn) [CBK068558],115.219
17,CCCCC(=O)N1CCC2(CC1)CC(=O)c1ccc(OCc3ccccc3)c(C)c1O2 [CBK156493],73.0984
15,COCCNc1nc2c([nH]1)c(=O)n(C)c(=O)n2C [CBK288104],120.605

# (list continues)

row,SMILES,% of control remaining [%]
1,O=C1CCCN1c1ccc(S(=O)(=O)N(c2ccccc2)C2CCNCC2)cc1 [CBK165122T],100.814
2,CC(C)(CSc1ccccn1)NS(=O)(=O)c1ccccc1 [CBK268513],96.5731
3,CCN1CCCC1CNC(=O)c1ccc(-c2ccc(OC)cc2)nc1N(C)C(C)=O (stereo not drawn) [CBK076491],146.09
4,Cc1cc(Sc2ncnc(N)c2[N+](=O)[O-])ncn1 [CBK267235],44.3209
5,COc1ccccc1CC(=O)N[C@@H]1CCN(Cc2cccnc2)C[C@H]1O [CBK307200],159.53
6,COc1ccc(Cl)cc1N1CCN(CC2CCCCC2)CC1 [CBK138336],120.669
7,CC(C)c1nnc(NS(=O)(=O)Cc2ccccc2)s1 [CBK045540],117.213
8,COc1ccc(CCN2C(=O)/C(=C\c3c(NCCO)nc4c(C)cccn4c3=O)SC2=S)cc1 [CBK265566],100
9,CN(C)CC(=O)NCc1ccc(-c2nc(-c3ccc(C#N)cc3)cnc2N)cc1 [CBK116506],118.871
10,COCCNc1cc(-c2ccc(F)c(F)c2)ncn1 [CBK090800],144.628
11,Cc1ncc(C(=O)NC2(c3cccc(F)c3)CCCC2)c(C)n1 [CBK283273],103.3
12,CCOc1ccc(NC(=O)Nc2ccc(CC(=O)O)cc2)cc1 [CBK266945],129.98
13,CCn1nc(C)c(CN(C)Cc2nc3ccccc3[nH]2)c1C [CBK282126],118.897
14,O=C(O)c1cc(NC(=O)c2cccc(F)c2)cc(NC(=O)c2cccc(F)c2)c1 [CBK262800],138.528
15,COc1ccccc1OCC(=O)Nc1cc(C)nc2ccccc12 [CBK122728],102.203
16,COCCN(CCOC)C(=O)COc1c(Cl)cc(C(=O)O)cc1Cl [CBK296704],121.679
17,CNC(=O)c1sc2ccccc2c1C1CCN(Cc2ccc(Oc3ncccn3)cc2)C1 (stereo not drawn) [CBK285881],136.529
18,O=C(O)[C@H]1CN(C(=O)c2cccs2)C[C@@H]1c1ccccc1F [CBK283819],138.472
19,CCCCC1CCC(C(=O)Oc2ccccc2OCCO)CC1 (stereo not drawn) [CBK081498],93.1666
20,O=C(Cc1ccc(F)cc1F)N1CCC(Sc2ccc(-c3ccccc3)cc2)CC1 [CBK131950],93.4991
21,Cn1c2c(c(=O)n(C)c1=O)[C@@H]1C(C[C@](O)(CO)[C@H]1O)C1(CCC1)N2 (stereo partly drawn) [CBK303264],103.709

row,SMILES,% of control remaining [%]
1,Cc1nc2c(c(=O)[nH]1)CN(Cc1c[nH]c3ccccc13)CC2 [CBK282327],106.833
2,CC(C)NC(=O)CN(CCO)Cc1cc(Br)ccc1F [CBK304944],110.935
3,Cn1cc(C(CC(=O)O)C(=O)O)c2ccccc21 (stereo not drawn) [CBK266231],126.901
4,COc1ncc(-c2nccnc2NCc2cccc(Cl)c2)c(OC)n1 [CBK037990],172.816
5,Cc1ccccc1N1C(=O)c2ccc(Br)cc2C1=O [CBK022430],108.867
6,O=C(NCCCO)c1ccc(/C=N/O)nc1 [CBK264560],122.541
7,Cc1noc(C)c1NC(=O)c1n[nH]c2ccccc12 [CBK200301],111.196
8,Cc1ccc(CCNC(=O)c2snnc2C)cc1C [CBK282051],100.36
9,O=C(O)c1nccnc1C(=O)NCCc1c[nH]c2ccc(Cl)cc12 [CBK286630],96.3074
10,O=CNCCCc1nc2ccccc2n1CCc1ccccc1 [CBK269393],120.611
11,CC(C)NC(=O)NC(=O)C1CCN(CCCc2ccc(Cl)c(Cl)c2)CC1 [CBK034947],141.521
12,C=C(C)CNC(=O)c1cc(Br)cnc1N(C)S(C)(=O)=O [CBK076498],125.299
13,CC(C(=O)N1CCC2(CC1)NC(=O)c1ccccc1N2)(c1ccccc1)c1ccccc1 [CBK286308],26.0712
14,CCSc1nnc2c(n1)OC(C)Nc1ccccc1-2 (stereo not drawn) [CBK025684],158.915
15,Cc1cc(O)c(C(=O)Nc2cccc(Cl)c2)c(=O)n1Cc1ccccn1 [CBK287729],125.929
16,CC(C)c1ccc(C2C(C(=O)c3ccco3)=C(O)C(=O)N2CCCN(C)C)cc1 (stereo not drawn) [CBK264549],117.6
17,N#Cc1c2c(c(NCCN3CCCCC3)n3c1nc1ccccc13)CCC2 [CBK263140],85.9248
18,C/N=c1\cccccc1NC [CBK022788],108.145
